No constants are given. Whether binding was seen depends on the method and setting. Binding seen in cells or lysates may run through a third protein. These calls come from enrichment with a bait or labelling near it, and not all partners need be listed.
Target: T1, endogenous RBM38 (not stated (endogenous, cell line not named)) (UniProt Q9H0Z9)
T1 sequence: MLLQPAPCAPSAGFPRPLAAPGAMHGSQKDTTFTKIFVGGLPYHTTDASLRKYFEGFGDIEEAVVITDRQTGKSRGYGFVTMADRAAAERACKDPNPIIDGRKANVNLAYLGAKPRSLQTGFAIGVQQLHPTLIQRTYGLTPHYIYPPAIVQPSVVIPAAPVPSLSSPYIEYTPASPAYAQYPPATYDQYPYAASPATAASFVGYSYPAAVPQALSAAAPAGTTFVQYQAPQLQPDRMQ
Assay: affinity purification with mass spectrometry

The chains behind the UniProt entries cited, without tags or fusion partners.
UniProt O60573: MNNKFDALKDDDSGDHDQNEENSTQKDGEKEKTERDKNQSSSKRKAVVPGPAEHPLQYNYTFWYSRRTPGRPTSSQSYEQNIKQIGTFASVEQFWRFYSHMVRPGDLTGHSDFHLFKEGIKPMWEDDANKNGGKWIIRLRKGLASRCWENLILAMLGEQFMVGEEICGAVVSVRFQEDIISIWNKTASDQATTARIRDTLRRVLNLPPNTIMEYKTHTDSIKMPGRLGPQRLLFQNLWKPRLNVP

With “endogenous eIF4E2 (from UniProt O60573 1-245)” the binding was “binds”.

— publication doi:10.1101/2020.10.20.346569
